Laboratory results: PubChem BioAssay AID1159578 (Peter MacCallum Cancer Centre, 2015)
Here is an unselected part of about 18,000 deposited reagents. About 1,030 of them (5.7%) count as active. 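Inactive calls also include pools with fewer than 3300 nuclei, whose migration was not assessed.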 The raw values are shown without normalisation. A number with no mark means an inactive call. Further read-outs or replicates are left out here. Reagent sequences are not shown.

- Screen: 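Genome-wide hunt for genes controlling movement of lymphatic endothelial cells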 (primary screen)
- Cells: human lymphatic endothelial cells
- Knock-down reagent: siRNA pool against human genes, 40 nM
- Duration: 48 h after transfection
- Measurement: 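High-content imaging of dye-stained cells in a scratch assay measures filled wound area and nuclei per well; duplicate means given as ratio to mock and robust z-score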
- Scale: migration robust z-score: higher = faster migration into the scratch; nuclei per well: higher = more cells in the well
- Hit rule: 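Migration changed when robust z exceeds 2 or falls below -2 and mean nuclei number is at least 3300; otherwise not called changed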
- Meaning of the calls: active = migration changed; inactive = no migration change, or too few cells

| target | migration robust z-score | nuclei per well, duplicate mean |
| --- | --- | --- |
| CLASP2 | 0.13 | 5656 |
| MID1 | 0.55 | 4874 |
| OSTM1 | 0.52 | 5625 |
| DTL | -0.56 | 6444 |
| FAR1 | -0.47 | 5178 |
| C8orf58 | -0.14 | 5969 |
| PRDM5 | 1.33 | 6532 |
| GCSH | 0.16 | 5418 |
| ALPL | -0.44 | 5220 |
| FAM219B | 0.86 | 6524 |
| KRTAP1-5 | -0.21 | 5060 |
| KRTAP23-1 | 0.04 | 5184 |
| SLC10A5 | -0.32 | 5912 |
| CD44 | 0.69 | 6440 |
| CT47A1 | -2.2 (active) | 5746 |
| STAP2 | -0.21 | 6403 |
| MEST | -0.21 | 5667 |
| AKT2 | -2.21 (active) | 3670 |
| ATOSB | 1.08 | 6262 |
| STX18 | 1.79 | 6331 |
| HDAC6 | -0.73 | 3702 |
| IGFN1 | 0.66 | 5416 |
| ZBTB46 | -1.02 | 5010 |
| FZD4 | 0.86 | 7058 |
| LHX6 | 0.68 | 4816 |
| CNGA1 | -0.88 | 6128 |
| PLA2G4C | -0.83 | 5422 |
| ADGRA2 | -0.6 | 5894 |
| TTLL7 | 0.26 | 7094 |
| PRDM6 | 1.53 | 6227 |
| ACSF2 | 0.47 | 5684 |
| CRYBA2 | -0.6 | 4954 |
| SASH1 | 0.9 | 6744 |

Next part, starting with the last 6 of the part before.
| target | migration robust z-score | nuclei per well, duplicate mean |
| --- | --- | --- |
| ADGRA2 | -0.6 | 5894 |
| TTLL7 | 0.26 | 7094 |
| PRDM6 | 1.53 | 6227 |
| ACSF2 | 0.47 | 5684 |
| CRYBA2 | -0.6 | 4954 |
| SASH1 | 0.9 | 6744 |
| OTUD4 | 0.5 | 7036 |
| EDDM3B | -0.35 | 4974 |
| IFT54 | -0.26 | 5670 |
| SLBP | -1.08 | 4651 |
| TMIGD1 | -0.67 | 3619 |
| TRIM7 | 0.02 | 5110 |
| RYR3 | -1.48 | 4189 |
| SRRM2 | 0.22 | 5643 |
| ZNF792 | 1.03 | 5230 |
| ARAF | -0.73 | 5294 |
| ZNF519 | 0.19 | 6439 |
| CRISP3 | 0.16 | 6107 |
| OVOL1 | -0.22 | 4210 |
| SEMA7A | 0.08 | 6078 |
| SGO1 | 0.19 | 3996 |
| ANP32E | -0.13 | 5936 |
| PPDPFL | 0.48 | 6652 |
| DCXR | -0.16 | 5278 |
| SPRY4 | -0.42 | 5324 |
| POLR1B | 0.74 | 6335 |
| CES3 | -0.55 | 6172 |
| SCN3B | 1.92 | 5118 |
| GZMB | 1.94 | 5925 |
| TDP1 | -0.7 | 5132 |
